Reference: PubChem BioAssay AID504467 (National Center for Advancing Translational Sciences (NCATS), 2011)
Out of some 330,000 compounds screened, about 7,700 (2.3%) were called active. Inconclusive results, whose numbers are uncertain, are shown with a selection of clear calls. The call rests on the fitted dose curve; in most records, active means well fitted inhibition curve with a large enough effect; inconclusive means small, poorly fitted or top-dose-only effect, or effect the other way; inactive means flat fitted curve, though single readings scatter. Potencies beside an inconclusive call are fits to weak or partial responses and may not hold up.

Test: qHTS screen for small molecules that inhibit ELG1-dependent DNA repair in human embryonic kidney (HEK293T) cells expressing luciferase-tagged ELG1; further: nearly all actives have a fitted effect of over 55% in size
Details: HEK293T ELG1-luciferase reporter, luminescence, 16 h, DNA damage induced by 5-fluorouridine; activity change, negative = inhibition: at 46.1 µM (top of the series)
Method in brief: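 Cells (2,000 per well) received 5-fluorouridine plus test compound or DMSO and were incubated 16 hr at 37 °C, 5% CO2. Luciferase activity was read by luminescence 30 min after ONE-Glo addition; signal suppression marked inhibition of damage-induced ELG1 function.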
On the % scale 0 is the no-effect control and ±100 the full control effect; potency means the concentration at half of the fitted maximal effect.

| Structure (SMILES) | Potency | activity change, negative = inhibition |
| --- | --- | --- |
| CC[C@H](CO)Oc1cc(NCc2ccc(Cl)c(Cl)c2)c2ncn(C(C)C)c2c1 | inconclusive: 25.9 µM [inhibitor, single point] |  |
| CCNC(=S)N/N=C/c1ccc(-c2ccccc2)o1 | inconclusive: 2.31 µM [activator, partial curve, poor fit] |  |
| NC(=O)c1sc2nccc(Nc3ccccc3)c2c1N | inconclusive: 1.3 µM [inhibitor, full curve] |  |
| O=C(COc1ccc(F)cc1)N1CCCc2ccccc21 | inconclusive: 10.3 µM [activator, partial curve] |  |
| CC(=O)c1cccc(NC(=O)CN(c2ccccc2F)S(C)(=O)=O)c1 | inconclusive: 18.4 µM [activator, single point] |  |
| COc1ccccc1OCCNC(=O)CN(c1cccc(C)c1)S(=O)(=O)c1ccccc1 | inconclusive: 29.1 µM [inhibitor, single point] |  |
| Cc1ccc(S(=O)(=O)N2CCOCC2)cc1NC(=O)COC(=O)COc1cccc2c1OC(C)(C)C2 |  | inactive: 18.9% |
| CCn1nc(NC(=O)c2ccccn2)c2cc3cc(C)ccc3nc21 | inconclusive: 29.1 µM [inhibitor, single point] |  |
| COC(=O)c1ccc(Nc2c([N+](=O)[O-])c(=O)oc3ccccc23)cc1 | inconclusive: 10.3 µM [inhibitor, partial curve, poor fit] |  |
| O=C(CCCc1c[nH]c2ccccc12)Nc1ccc2ccccc2c1 |  | inactive: 29.2% |
| Cc1nc(N)sc1C(=O)N/N=C/c1c[nH]c2ccccc12 | inconclusive: 9.2 µM [activator, partial curve] |  |
| COc1ccccc1CNC(=O)CSc1nnc2c(n1)[nH]c1ccc(F)cc12 |  | inactive: 9.38% |
| Nc1ccc(C23CC4CC(CC(CO)(C4)C2)C3)cc1 | inconclusive: 29.1 µM [activator, single point] |  |
| Cc1ccccc1CSCc1nc(N)nc(Nc2ccccc2C)n1 | inconclusive: 0.73 µM [inhibitor, single point] |  |
| COc1ccc(C2=NN(C(=O)CN3CCCC3)C(c3ccc(OC)cc3)C2)cc1 (stereo not drawn) | inconclusive: 29.1 µM [activator, single point] |  |
| NC(=O)NC[C@@H]1CC[C@@H](Cc2ccc(-c3ccccc3)cc2)O1 | inconclusive: 5.17 µM [activator, partial curve] |  |
| CC1NC(=O)NC1CCCCC(=O)O (stereo not drawn) |  | inactive: 0.446% |
| NS(=O)(=O)c1ccc(NC(=O)C2CCCN(S(=O)(=O)c3ccc(F)cc3)C2)cc1 (stereo not drawn) |  | inactive: -23.1% |
| C[C@]12c3[nH]c4ccc(Cl)cc4c3CCN1C(=O)[C@@H](CC(=O)NCCCn1ccnc1)C[C@@H]2C(=O)N1CCCCC1 | inconclusive: 6.51 µM [inhibitor, partial curve] |  |
| N#CC1=C(SCC(=O)Nc2ccc(C(=O)O)cc2)NC(=O)CC1c1ccco1 (stereo not drawn) |  | inactive: -10.9% |
| CSc1ccccc1N1CCN(C(=O)Nc2ccc3c(c2)NC(=O)CO3)CC1 | inconclusive: 29.1 µM [inhibitor, single point] |  |
| CCN(CC)C(=O)CSc1nnc(-c2ccc(S(=O)(=O)N3CCCC3)cc2)o1 |  | inactive: -7.78% |

| Structure (SMILES) | Potency | activity change, negative = inhibition |
| --- | --- | --- |
| CC(=O)c1ccc(Nc2c3c(nc4ccccc24)CCCC3)cc1 | inconclusive: 20.6 µM [inhibitor, single point] |  |
| COC(=O)/C(=C/N(C)C)C(=O)N1CCN(c2ccc(Cl)c(Cl)c2)CC1 | inconclusive: 20.6 µM [inhibitor, single point] |  |
| Cc1nn(-c2cccc(C(F)(F)F)c2)c(Cl)c1/C=N/Nc1cccc(C(=O)O)c1 | inconclusive: 0.461 µM [activator, full curve] |  |
| COCCn1c(C)cc(C(=O)COC(=O)c2ccc3ncsc3c2)c1C | inconclusive: 7.31 µM [activator, partial curve] |  |
| O=C(CSc1nccn1-c1ncc(C(F)(F)F)cc1Cl)c1ccc(Cl)cc1 | inconclusive: 10.3 µM [activator, partial curve] |  |
| Cc1ccccc1C(=O)N[C@H](C(=O)OCC(=O)c1ccc[nH]1)C(C)C | inconclusive: 23.1 µM [activator, partial curve, poor fit] |  |
| CC(C)n1cnc2c(Nc3cccc(F)c3)nc(NCCO)nc21 | inconclusive: 10.3 µM [activator, partial curve, poor fit] |  |
| COC(=O)c1ccc(NC(=O)Cn2nc(C)cc2C)cc1 | inconclusive: 29.1 µM [inhibitor, single point] |  |
| CC(Sc1nnc(C2CC2)n1C1CC1)C(=O)Nc1ccccc1C#N (stereo not drawn) | inconclusive: 0.259 µM [inhibitor, single point] |  |
| Cc1oc(/N=C/c2ccc(O)cc2O)c(C#N)c1C |  | inactive: 6.01% |
| CC(=O)NC(=S)Nc1ccc(NC(=O)c2cccs2)cc1 |  | inactive: 16.3% |
| CCOC(=O)Nc1ccc2nc(Sc3ccc(Cl)cc3)sc2c1 |  | inactive: -19.6% |
| O=C(NC(=S)N1CCc2ccccc21)c1ccccc1Br | inconclusive: 23.1 µM [activator, partial curve] |  |
| Cc1c(CN2CCN(c3cccc(C(F)(F)F)c3)CC2)c(=O)n(-c2ccccc2)n1C | inconclusive: 16.4 µM [inhibitor, partial curve, poor fit] |  |
| COC(=O)C1=C(CSc2nncn2C)NC(=O)NC1c1ccc(F)cc1 (stereo not drawn) |  | inactive: 9.61% |
| COc1ccc2oc(C(=O)N(C)Cc3ccc(OC(F)F)cc3)c(C)c2c1 |  | inactive: 9.05% |
| O=C(NN=C1CCCC1)c1n[nH]c2c1CCC2 | inconclusive: 29.1 µM [activator, single point] |  |
| CCOC(=O)N1CCC(c2cc(=O)n3[nH]c(C)c(-c4ccc(F)cc4)c3n2)CC1 |  | inactive: -23.3% |
| Cc1ccc(-n2[nH]c(C)c(/C=N/NC(=O)c3ccc([N+](=O)[O-])cc3)c2=O)c(C)c1 | inconclusive: 2.31 µM [inhibitor, partial curve, poor fit] |  |
| CC(C)CC(=O)N/C(N)=N/c1nc2ccccc2s1 | inconclusive: 1.84 µM [activator, partial curve] |  |
| CCOc1cc(C2NN=C(c3ccccc3)S2)ccc1OCc1ccccc1Cl (stereo not drawn) | inconclusive: 20.6 µM [activator, partial curve] |  |

2 entries picked at random from the list so far:

| Structure (SMILES) | Potency | activity change, negative = inhibition |
| --- | --- | --- |
| Cc1ccc(-n2[nH]c(C)c(/C=N/NC(=O)c3ccc([N+](=O)[O-])cc3)c2=O)c(C)c1 | inconclusive: 2.31 µM [inhibitor, partial curve, poor fit] |  |
| Cc1ccccc1C(=O)N[C@H](C(=O)OCC(=O)c1ccc[nH]1)C(C)C | inconclusive: 23.1 µM [activator, partial curve, poor fit] |  |
